Data: the supplement of paper PMC7646827
Counter-ions that a name gives are not always drawn. Many values rest on one well or one pass, so single values are uncertain.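 All cells are established human bladder cancer lines, one derived from a patient-derived xenograft. A luminescent ATP assay measured viability as percent inhibition relative to vehicle across seven dilutions. The paper rates scores above 59 very active, 30–59 active, 21–29 semi-active, 9–20 low active, below 9 inactive.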

What was measured:
Assay in all cases: drug sensitivity score DSS3 (score 0-100); higher = more sensitive; extreme values may be limits of the assay
Conditions in all cases: culture: 3D, ultra-low attachment; treatment time: 5 days
UM-UC-12 = system: UM-UC-12
SW780 = system: SW780
SCaBER = system: SCaBER
T-24 = system: T-24
5637 = system: 5637
UM-UC-6 = system: UM-UC-6
TCCSUP = system: TCCSUP
UM-UC-3 = system: UM-UC-3
BC8149 = system: BC8149
UM-UC-18 = system: UM-UC-18
J82 = system: J82
UM-UC-1 = system: UM-UC-1
UM-UC-5 = system: UM-UC-5
UM-UC-14 = system: UM-UC-14
UM-UC-9 = system: UM-UC-9
UM-UC-17 = system: UM-UC-17
UM-UC-15 = system: UM-UC-15

| Structure (SMILES) | drug sensitivity score DSS3 (UM-UC-12) | drug sensitivity score DSS3 (SW780) | drug sensitivity score DSS3 (SCaBER) | drug sensitivity score DSS3 (T-24) | drug sensitivity score DSS3 5637 | drug sensitivity score DSS3 (UM-UC-6) | drug sensitivity score DSS3 (TCCSUP) | drug sensitivity score DSS3 (UM-UC-3) | drug sensitivity score DSS3 (BC8149) | drug sensitivity score DSS3 (UM-UC-18) | drug sensitivity score DSS3 (J82) | drug sensitivity score DSS3 (UM-UC-1) | drug sensitivity score DSS3 (UM-UC-5) | drug sensitivity score DSS3 (UM-UC-14) | drug sensitivity score DSS3 (UM-UC-9) | drug sensitivity score DSS3 (UM-UC-17) | drug sensitivity score DSS3 (UM-UC-15) |
| --- | --- | --- | --- | --- | --- | --- | --- | --- | --- | --- | --- | --- | --- | --- | --- | --- | --- |
| C[C@H](Nc1ncnc2[nH]cnc12)c1cc2ccc(F)cc2nc1-c1ccccn1 [AMG319] (max dose 10000 nM) | 0.632 | 4.17 | 4.93 | 17 | 2.17 | 0.846 | 3.33 | 6.81 | 0 | 0 | 3.33 | 1.29 | 1.28 | 1.11 | 0 | 0.223 | 0 |
| COCCOc1cnc2ccn([C@H](C)c3nnc4c(F)cc(-c5cnn(C)c5)cn34)c(=O)c2c1 [AMG 337] (max dose 10000 nM) | 0 | 0 | 0 | 0 | 0 | 0 | 0 | 0 | 0 | 0 | 0 | 0 | 0 | 0 | 0 | 0 | 0 |
| CN[C@@H](C)C(=O)N[C@H]1CN(C(=O)CC(C)C)CC[C@H]2CC[C@@H](C(=O)NC(c3ccccc3)c3ccccc3)N2C1=O [AT406 (SM-406)] (max dose 10000 nM) | 17.9 | 0.436 | 28.6 | 3.23 | 4.81 | 4.77 | 18.2 | 2.68 | 11.8 | 1.08 | 8.29 | 1.8 | 0 | 3.93 | 0 | 0 | 18.2 |
| O=C(NC1CCNCC1)c1n[nH]cc1NC(=O)c1c(Cl)cccc1Cl [AT7519] (max dose 10000 nM) | 2.06 | 7.55 | 11.3 | 2.2 | 18.1 | 12.7 | 16.5 | 6.38 | 14.6 | 10.7 | 0.955 | 12.2 | 10.2 | 6.45 | 9.32 | 8.69 | 8.24 |
| CCNC(=O)c1noc(-c2cc(C(C)C)c(O)cc2O)c1-c1ccc(CN2CCOCC2)cc1 [AUY922 (NVP-AUY922)] (max dose 10000 nM) | 50.2 | 1.19 | 64.3 | 52.8 | 65.3 | 15.2 | 37.5 | 66.9 | 60.3 | 60.6 | 28.7 | 38.6 | 30.1 | 24.5 | 34.2 | 24.4 | 48 |
| Cc1ccc(NC(=O)c2cccc(C(C)(C)C#N)c2)cc1Nc1ccc2ncn(C)c(=O)c2c1 [AZ 628] (max dose 10000 nM) | 3.23 | 6.16 | 10.9 | 1.56 | 14 | 0 | 0.673 | 7.34 | 6.11 | 2.79 | 0 | 0.0936 | 19.5 | 0.308 | 3.02 | 0 | 0.561 |
| COc1cc(OC2CCN(C)CC2)ccc1Nc1ncc2c(n1)n(C1CCCC1)c(=O)n2C [AZ 3146] (max dose 10000 nM) | 0 | 0 | 0 | 0 | 0 | 0.306 | 0.4 | 0.0673 | 0 | 0 | 0 | 0.0118 | 0 | 0 | 0 | 0 | 0 |
| CN1CCN(CCOc2cc(OC3CCOCC3)c3c(Nc4c(Cl)ccc5c4OCO5)ncnc3c2)CC1 [AZD0530, Saracatinib (AZD0530)] (max dose 10000 nM) | 20.7 | 1.92 | 6.15 | 16.2 | 3.76 | 2.58 | 11.2 | 3.36 | 0.593 | 2.7 | 0 | 1.74 | 0 | 2.2 | 0 | 0 | 0.24 |
| N#Cc1ccc2[nH]c(O)c(-c3ccc(CN4CCOCC4)cn3)c2c1 [AZD1080] (max dose 10000 nM) | 0 | 0 | 0 | 0 | 1.43 | 0 | 0 | 0 | 0 | 0 | 0 | 0 | 0 | 0 | 0 | 0 | 0 |
| C=CCn1c(=O)c2cnc(Nc3ccc(N4CCN(C)CC4)cc3)nc2n1-c1cccc(C(C)(C)O)n1 [AZD1775, MK-1775] (max dose 10000 nM) | 4.67 | 1.31 | 4.44 | 0 | 23.7 | 23 | 33.3 | 1.64 | 22 | 13.6 | 1.53 | 12.2 | 1.04 | 6.27 | 8.35 | 9.32 | 2.65 |
| CC(=O)Nc1cccc2c1c(Sc1ccc(Cl)cc1)c(C)n2CC(=O)O [AZD1981] (max dose 10000 nM) | 0 | 0 | 0 | 0 | 0 | 0 | 0.146 | 0 | 0.178 | 0 | 0 | 0 | 0 | 0.0545 | 0 | 0 | 0 |
| COC1CCN(C(=O)c2cc(Cc3n[nH]c(=O)c4ccccc34)ccc2F)CC1 [AZD2461] (max dose 10000 nM) | 0 | 0 | 1.43 | 0 | 0.272 | 0.651 | 2.46 | 0 | 0 | 0 | 0 | 0 | 0 | 0.0326 | 0 | 0 | 0 |
| COc1nc(C)cnc1NS(=O)(=O)c1cccnc1-c1ccc(-c2nnco2)cc1 [AZD4054, Zibotentan (ZD4054)] (max dose 10000 nM) | 0 | 0 | 0 | 0 | 0 | 0 | 0 | 0 | 0 | 0 | 0 | 0 | 0 | 0 | 0 | 0 | 0 |
| NC(=O)Nc1cc(-c2cccc(F)c2)sc1C(=O)N[C@H]1CCCNC1 [AZD7762] (max dose 10000 nM) | 1.88 | 0 | 6.81 | 0 | 16.6 | 15 | 31.8 | 4.41 | 10.7 | 15.1 | 1.23 | 15.5 | 7.7 | 6.46 | 0.249 | 3.78 | 0 |
| COc1ccc(-c2ccc3c(N4CCOC[C@@H]4C)nc(N4CCOC[C@@H]4C)nc3n2)cc1CO [AZD8055] (max dose 10000 nM) | 24.1 | 15.6 | 30.4 | 1.91 | 28.8 | 25.3 | 51.1 | 28.1 | 49.1 | 22.9 | 20.3 | 30.7 | 25.9 | 14.1 | 13.7 | 9.66 | 3.75 |
| C[C@@H](Nc1cc(F)cc(F)c1)c1cc(C(=O)N(C)C)cc2c(=O)cc(N3CCOCC3)oc12 [AZD8186] (max dose 10000 nM) | 14.2 | 10.6 | 11.8 | 0 | 14.5 | 0.501 | 7.28 | 17.6 | 11.8 | 7.1 | 8.35 | 12.9 | 3.91 | 9.49 | 16.8 | 9.14 | 4.67 |
| CCN1CCN(Cc2ccc(Nc3ncc(F)c(-c4cc(F)c5nc(C)n(C(C)C)c5c4)n3)nc2)CC1 [Abemaciclib Mesylate] (max dose 10000 nM) | 25.7 | 3.96 | 17.6 | 17.8 | 16.9 | 0 | 15.3 | 23.4 | 40.2 | 7.06 | 5.15 | 3.76 | 0 | 5.34 | 1.41 | 3.82 | 3.97 |
| CN(C)c1nc(N(C)C)nc(N(C)C)n1 [Altretamine] (max dose 10000 nM) | 0 | 0 | 0 | 0 | 0 | 0 | 0 | 0 | 0 | 0 | 0 | 0 | 0 | 0 | 0 | 0 | 0 |
| Cc1c(-c2ccnn2C)cc(C(=O)NCc2ccc(S(C)(=O)=O)cn2)c(=O)n1-c1cccc(C(F)(F)F)c1 [Alvelestat (AZD9668)] (max dose 10000 nM) | 0 | 0 | 0 | 0 | 0 | 0 | 0 | 0 | 0 | 0 | 0 | 0 | 0 | 0 | 0 | 0 | 0 |
| COC(c1ccccc1)(c1ccccc1)[C@H](Oc1nc(C)cc(C)n1)C(=O)O [Ambrisentan] (max dose 10000 nM) | 2.9 | 1.57 | 0.981 | 0 | 4.65 | 8.53 | 9.01 | 1.52 | 1.21 | 8.93 | 0 | 36.1 | 2.32 | 5.79 | 0 | 4.03 | 0 |
| CCC1(c2ccc(N)cc2)CCC(=O)NC1=O (stereo not drawn) [Aminoglutethimide] (max dose 10000 nM) | 0 | 0 | 0 | 0 | 0 | 0 | 0 | 0 | 0 | 0 | 0 | 0 | 0 | 0 | 0 | 0 | 0 |
| Cc1cc2ncc(C(=O)NCC(C)(C)NCC(=O)N3CCC[C@H]3C#N)cn2n1 [Anagliptin] (max dose 10000 nM) | 0 | 0 | 0 | 0 | 0 | 0 | 0 | 0 | 0 | 0 | 0 | 0 | 0 | 0 | 0 | 0 | 0 |
| CC(C)(C#N)c1cc(Cn2cncn2)cc(C(C)(C)C#N)c1 [Anastrozole] (max dose 10000 nM) | 0.00311 | 0 | 0 | 0 | 0 | 0 | 1.29 | 0 | 0.00587 | 0 | 0 | 0.196 | 0 | 0 | 0 | 0 | 0 |
| C[C@@H](O[C@H]1OCCN(Cc2n[nH]c(=O)[nH]2)[C@H]1c1ccc(F)cc1)c1cc(C(F)(F)F)cc(C(F)(F)F)c1 [Aprepitant] (max dose 10000 nM) | 0.388 | 0 | 0.0571 | 0 | 0 | 0 | 1.91 | 0.0122 | 0 | 0 | 0 | 0 | 0 | 0 | 0 | 0.0412 | 1.85 |

Random excerpt: two entries already listed

| Structure (SMILES) | drug sensitivity score DSS3 (UM-UC-12) | drug sensitivity score DSS3 (SW780) | drug sensitivity score DSS3 (SCaBER) | drug sensitivity score DSS3 (T-24) | drug sensitivity score DSS3 5637 | drug sensitivity score DSS3 (UM-UC-6) | drug sensitivity score DSS3 (TCCSUP) | drug sensitivity score DSS3 (UM-UC-3) | drug sensitivity score DSS3 (BC8149) | drug sensitivity score DSS3 (UM-UC-18) | drug sensitivity score DSS3 (J82) | drug sensitivity score DSS3 (UM-UC-1) | drug sensitivity score DSS3 (UM-UC-5) | drug sensitivity score DSS3 (UM-UC-14) | drug sensitivity score DSS3 (UM-UC-9) | drug sensitivity score DSS3 (UM-UC-17) | drug sensitivity score DSS3 (UM-UC-15) |
| --- | --- | --- | --- | --- | --- | --- | --- | --- | --- | --- | --- | --- | --- | --- | --- | --- | --- |
| NC(=O)Nc1cc(-c2cccc(F)c2)sc1C(=O)N[C@H]1CCCNC1 [AZD7762] (max dose 10000 nM) | 1.88 | 0 | 6.81 | 0 | 16.6 | 15 | 31.8 | 4.41 | 10.7 | 15.1 | 1.23 | 15.5 | 7.7 | 6.46 | 0.249 | 3.78 | 0 |
| Cc1c(-c2ccnn2C)cc(C(=O)NCc2ccc(S(C)(=O)=O)cn2)c(=O)n1-c1cccc(C(F)(F)F)c1 [Alvelestat (AZD9668)] (max dose 10000 nM) | 0 | 0 | 0 | 0 | 0 | 0 | 0 | 0 | 0 | 0 | 0 | 0 | 0 | 0 | 0 | 0 | 0 |
